The results in this text go back to article PMC7693736.

The chains behind the UniProt entries cited, without tags or fusion partners.
UniProt Q14457: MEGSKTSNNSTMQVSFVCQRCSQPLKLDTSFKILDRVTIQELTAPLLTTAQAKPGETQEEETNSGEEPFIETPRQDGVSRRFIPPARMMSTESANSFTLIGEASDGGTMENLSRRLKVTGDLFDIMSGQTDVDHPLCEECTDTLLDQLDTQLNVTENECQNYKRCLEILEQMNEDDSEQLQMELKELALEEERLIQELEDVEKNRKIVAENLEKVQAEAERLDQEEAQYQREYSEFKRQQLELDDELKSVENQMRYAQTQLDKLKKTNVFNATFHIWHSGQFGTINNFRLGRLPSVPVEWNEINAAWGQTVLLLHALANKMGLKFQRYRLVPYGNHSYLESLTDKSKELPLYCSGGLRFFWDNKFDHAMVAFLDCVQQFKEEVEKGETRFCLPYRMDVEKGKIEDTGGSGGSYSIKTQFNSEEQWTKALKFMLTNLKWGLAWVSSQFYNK
UniProt O88597: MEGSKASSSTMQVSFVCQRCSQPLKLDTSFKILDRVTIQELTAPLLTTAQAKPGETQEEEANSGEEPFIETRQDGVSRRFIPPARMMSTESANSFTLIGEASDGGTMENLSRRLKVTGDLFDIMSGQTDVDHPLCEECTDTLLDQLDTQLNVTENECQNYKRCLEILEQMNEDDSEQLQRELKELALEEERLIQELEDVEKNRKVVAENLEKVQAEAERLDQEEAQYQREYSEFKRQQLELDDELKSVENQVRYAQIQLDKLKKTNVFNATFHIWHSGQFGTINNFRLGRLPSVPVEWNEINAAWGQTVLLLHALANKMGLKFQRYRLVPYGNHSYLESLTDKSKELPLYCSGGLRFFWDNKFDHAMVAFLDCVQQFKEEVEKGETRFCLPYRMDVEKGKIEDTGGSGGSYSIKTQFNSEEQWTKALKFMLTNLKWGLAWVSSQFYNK

The target in one test is Beclin 1-HA (UniProt Q14457). Put plainly: co-IP; Flag-TLR9 or its fragments coexpressed with Beclin 1-HA in 293 cells (legend; the text says H9c2 for the full-length pair), with or without empagliflozin (200 nM); anti-HA or anti-Flag immunoprecipitates analysed by western blot.
Test [1] addresses Beclin 1, endogenous in mouse heart (mouse (endogenous in heart)) (UniProt O88597). As to the kind of experiment: co-IP; heart lysates of WT mice fed with or without empagliflozin for 7 days; immunoprecipitated with Beclin 1 antibody, blotted with TLR9 antibodies recognising full-length 130 kDa or cleaved 53 kDa form.

No constants are given. Whether binding was seen depends on the method and setting. Binding seen in cells or lysates may run through a third protein. Some results given as binding are weak or reduced against the parent protein; the word gives no strength. For some assays here: Sequences can lack the tags named with a protein.

B1: Flag-tagged TLR9 with only TIR domain (TIR) (domain or fragment, UniProt Q9NR96 868-1013)
chain: LPYDAFVVFDKTQSAVADWVYNELRGQLEECRGRWALRLCLEERDWLPGKTLFENLWASVYGSRKTLFVLAHTDRVSGLLRASFLLAQQRLLEDRKDVVVLVILSPDGRRSRYVRLRQRLCRQSVLLWPHQPSGQRSFWAQLGMAL
For B1, the binding entry with Beclin 1-HA is listed as “no binding”.

B2: full-length TLR9 (130 kDa), endogenous in mouse heart (receptor, UniProt Q9EQU3 26-1032)
chain: LGTLPAFLPCELKPHGLVDCNWLFLKSVPRFSAAASCSNITRLSLISNRIHHLHNSDFVHLSNLRQLNLKWNCPPTGLSPLHFSCHMTIEPRTFLAMRTLEELNLSYNGITTVPRLPSSLVNLSLSHTNILVLDANSLAGLYSLRVLFMDGNCYYKNPCTGAVKVTPGALLGLSNLTHLSLKYNNLTKVPRQLPPSLEYLLVSYNLIVKLGPEDLANLTSLRVLDVGGNCRRCDHAPNPCIECGQKSLHLHPETFHHLSHLEGLVLKDSSLHTLNSSWFQGLVNLSVLDLSENFLYESITHTNAFQNLTRLRKLNLSFNYRKKVSFARLHLASSFKNLVSLQELNMNGIFFRLLNKYTLRWLADLPKLHTLHLQMNFINQAQLSIFGTFRALRFVDLSDNRISGPSTLSEATPEEADDAEQEELLSADPHPAPLSTPASKNFMDRCKNFKFTMDLSRNNLVTIKPEMFVNLSRLQCLSLSHNSIAQAVNGSQFLPLTNLQVLDLSHNKLDLYHWKSFSELPQLQALDLSYNSQPFSMKGIGHNFSFVTHLSMLQSLSLAHNDIHTRVSSHLNSNSVRFLDFSGNGMGRMWDEGGLYLHFFQGLSGLLKLDLSQNNLHILRPQNLDNLPKSLKLLSLRDNYLSFFNWTSLSFLPNLEVLDLAGNQLKALTNGTLPNGTLLQKLDVSSNSIVSVVPAFFALAVELKEVNLSHNILKTVDRSWFGPIVMNLTVLDVRSNPLHCACGAAFVDLLLEVQTKVPGLANGVKCGSPGQLQGRSIFAQDLRLCLDEVLSWDCFGLSLLAVAVGMVVPILHHLCGWDVWYCFHLCLAWLPLLARSRRSAQTLPYDAFVVFDKAQSAVADWVYNELRVRLEERRGRRALRLCLEDRDWLPGQTLFENLWASIYGSRKTLFVLAHTDRVSGLLRTSFLLAQQRLLEDRKDVVVLVILRPDAHRSRYVRLRQRLCRQSVLFWPQQPNGQGGFWAQLSTALTRDNRHFYNQNFCRGPTAE
B2: the binding result in test [1] is given as “binds”.
